PMC4814918
No constants are given. Whether binding was seen depends on the method and setting. Binding seen in cells or lysates may run through a third protein. Some results given as binding are weak or reduced against the parent protein; the word gives no strength. Sequences can lack the tags named with a protein.

Molecular target: T1, FLAG-ChREBP-α (carbohydrate responsive element binding protein, isoform alpha) (UniProt Q9NP71)
T1 sequence: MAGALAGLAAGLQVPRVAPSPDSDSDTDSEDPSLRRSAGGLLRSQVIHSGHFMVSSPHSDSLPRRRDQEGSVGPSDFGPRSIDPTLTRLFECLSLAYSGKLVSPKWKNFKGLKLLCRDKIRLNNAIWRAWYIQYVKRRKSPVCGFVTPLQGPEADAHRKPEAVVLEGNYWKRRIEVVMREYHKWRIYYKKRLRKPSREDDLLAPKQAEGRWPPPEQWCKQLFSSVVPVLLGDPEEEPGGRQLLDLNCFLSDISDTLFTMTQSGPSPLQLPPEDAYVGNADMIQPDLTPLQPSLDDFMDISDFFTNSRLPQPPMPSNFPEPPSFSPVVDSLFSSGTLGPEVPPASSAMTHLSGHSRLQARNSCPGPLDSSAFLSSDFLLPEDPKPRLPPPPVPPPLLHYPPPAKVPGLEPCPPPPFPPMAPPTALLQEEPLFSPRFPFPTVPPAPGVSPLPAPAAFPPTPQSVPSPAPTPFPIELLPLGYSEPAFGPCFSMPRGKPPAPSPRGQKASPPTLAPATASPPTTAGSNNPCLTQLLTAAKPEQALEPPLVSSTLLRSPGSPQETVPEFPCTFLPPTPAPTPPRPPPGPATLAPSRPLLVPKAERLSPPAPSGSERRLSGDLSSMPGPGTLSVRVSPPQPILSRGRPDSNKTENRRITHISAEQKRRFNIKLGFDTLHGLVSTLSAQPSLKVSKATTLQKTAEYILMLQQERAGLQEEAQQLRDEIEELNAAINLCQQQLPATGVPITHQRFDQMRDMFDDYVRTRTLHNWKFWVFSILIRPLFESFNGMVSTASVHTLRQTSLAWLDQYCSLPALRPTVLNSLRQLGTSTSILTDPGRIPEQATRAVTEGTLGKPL
Test: co-IP; FLAG-ChREBP-α and HA-HNF-4α co-transfected in 293T cells, with or without ectopic Mlx; also cells treated with 0, 5.6 or 25 mM glucose for 18 hours; lysis buffer 1 mM EDTA, 40 mM Tris-HCl pH 8, 100 mM NaCl, 0.5% NP-40, 1% Triton X-100; primary antibody at 4 °C overnight, protein A/G-agarose beads; western blot

- binding: binds
B1: HA-HNF-4α (hepatocyte nuclear factor 4 alpha) (protein, UniProt P41235 1-474)
chain: MRLSKTLVDMDMADYSAALDPAYTTLEFENVQVLTMGNDTSPSEGTNLNAPNSLGVSALCAICGDRATGKHYGASSCDGCKGFFRRSVRKNHMYSCRFSRQCVVDKDKRNQCRYCRLKKCFRAGMKKEAVQNERDRISTRRSSYEDSSLPSINALLQAEVLSRQITSPVSGINGDIRAKKIASIADVCESMKEQLLVLVEWAKYIPAFCELPLDDQVALLRAHAGEHLLLGATKRSMVFKDVLLLGNDYIVPRHCPELAEMSRVSIRILDELVLPFQELQIDDNEYAYLKAIIFFDPDAKGLSDPGKIKRLRSQVQVSLEDYINDRQYDSRGRFGELLLLLPTLQSITWQMIEQIQFIKLFGMAKIDNLLQEMLLGGSPSDAPHAHHPLHPHLMQEHMGTNVIVANTMPTHLSNGQMCEWPRPRGQAATPETPQPSPPGGSGSEPYKLLPGAVATIVKPLSAIPQPTITKQEVI
